# Data taken from publication PMC8463608.
# The chains behind the UniProt entries cited, without tags or fusion partners. Residues count along the entry.
# UniProt P29844, residues 19-656: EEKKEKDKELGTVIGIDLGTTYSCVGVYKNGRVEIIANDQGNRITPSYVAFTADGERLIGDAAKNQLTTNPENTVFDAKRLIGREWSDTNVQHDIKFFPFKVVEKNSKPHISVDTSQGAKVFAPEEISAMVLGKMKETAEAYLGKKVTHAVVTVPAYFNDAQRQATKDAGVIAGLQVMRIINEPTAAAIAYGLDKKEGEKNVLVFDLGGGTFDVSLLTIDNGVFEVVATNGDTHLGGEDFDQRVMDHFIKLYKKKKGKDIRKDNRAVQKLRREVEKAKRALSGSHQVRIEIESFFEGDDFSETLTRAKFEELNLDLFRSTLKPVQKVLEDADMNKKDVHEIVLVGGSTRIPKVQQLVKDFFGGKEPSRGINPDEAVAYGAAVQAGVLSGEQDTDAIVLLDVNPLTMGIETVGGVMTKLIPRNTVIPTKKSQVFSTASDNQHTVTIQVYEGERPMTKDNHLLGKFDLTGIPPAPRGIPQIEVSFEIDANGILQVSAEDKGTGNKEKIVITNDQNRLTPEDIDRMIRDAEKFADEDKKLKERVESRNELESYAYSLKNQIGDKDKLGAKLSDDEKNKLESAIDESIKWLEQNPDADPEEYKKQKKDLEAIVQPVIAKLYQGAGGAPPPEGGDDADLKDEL
# Biological target: T1, Drosophila adiponectin receptor, Myc-tagged (AdipoR-Myc), expressed ubiquitously in larvae (Drosophila) (UniProt Q9VCY8)
# T1 sequence: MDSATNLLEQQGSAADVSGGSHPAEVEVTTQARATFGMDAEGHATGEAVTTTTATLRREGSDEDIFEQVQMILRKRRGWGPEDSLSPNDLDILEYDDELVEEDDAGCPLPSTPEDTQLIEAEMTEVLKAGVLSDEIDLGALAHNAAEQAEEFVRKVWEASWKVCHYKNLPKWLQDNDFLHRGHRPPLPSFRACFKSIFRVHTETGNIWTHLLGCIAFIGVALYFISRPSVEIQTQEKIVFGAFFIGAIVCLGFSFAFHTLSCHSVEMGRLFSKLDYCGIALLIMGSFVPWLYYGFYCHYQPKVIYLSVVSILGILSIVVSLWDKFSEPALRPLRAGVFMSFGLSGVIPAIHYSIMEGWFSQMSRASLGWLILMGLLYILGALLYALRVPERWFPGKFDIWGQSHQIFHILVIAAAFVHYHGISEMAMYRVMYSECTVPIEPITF
# Test: affinity purification with mass spectrometry; anti-Myc immunoprecipitation (µMACS magnetic microbeads) of AdipoR-Myc from lysate of larvae expressing it ubiquitously; controls: wild-type larvae and Smo-myc; nanoLC-MS/MS, triplicates
substance,measurement,value
"glucose-regulated protein 78 (Grp78), endogenous in larvae (from UniProt P29844 19-656)",binding,binds

# No constants are given. Whether binding was seen depends on the method and setting. In cells and extracts the contact can be indirect. A yes stands for co-enrichment or nearness to the bait. Other partners may have been found. Tags and fused reporters may be left off the sequences shown.
